From publication PMC7350762
Results are given in words; binding and its absence hold for the method and conditions named. In cells and extracts the contact can be indirect. Some binding calls cover weakened binding; strength is not graded here. For some of these results: Where a sequence is shown, tags or fusion partners need not be part of it.

By UniProt entry, the sequences of proteins in these tests, tags left out.
UniProt P51692: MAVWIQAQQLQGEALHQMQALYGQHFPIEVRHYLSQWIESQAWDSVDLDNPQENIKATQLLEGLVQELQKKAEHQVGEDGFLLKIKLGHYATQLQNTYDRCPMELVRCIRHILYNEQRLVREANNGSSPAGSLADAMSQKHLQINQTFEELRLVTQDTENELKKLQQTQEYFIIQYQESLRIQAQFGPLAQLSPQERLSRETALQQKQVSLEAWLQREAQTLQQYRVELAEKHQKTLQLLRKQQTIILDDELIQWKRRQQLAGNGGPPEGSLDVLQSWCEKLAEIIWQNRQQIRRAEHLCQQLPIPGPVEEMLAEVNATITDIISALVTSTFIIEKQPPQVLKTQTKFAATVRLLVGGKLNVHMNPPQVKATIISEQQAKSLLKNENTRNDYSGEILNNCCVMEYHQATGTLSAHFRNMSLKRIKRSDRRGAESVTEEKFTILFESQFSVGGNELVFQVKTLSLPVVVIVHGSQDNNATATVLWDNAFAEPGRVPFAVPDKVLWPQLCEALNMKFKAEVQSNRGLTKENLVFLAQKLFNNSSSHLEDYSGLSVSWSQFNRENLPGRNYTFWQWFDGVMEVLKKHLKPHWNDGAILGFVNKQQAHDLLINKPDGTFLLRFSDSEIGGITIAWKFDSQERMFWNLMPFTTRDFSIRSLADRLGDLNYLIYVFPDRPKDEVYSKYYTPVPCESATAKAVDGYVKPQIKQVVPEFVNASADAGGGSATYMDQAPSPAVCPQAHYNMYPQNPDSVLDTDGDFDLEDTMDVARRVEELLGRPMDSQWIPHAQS

Legend:
[1] = molecular target: T1, Myc-tagged MKL-1 (WT-MKL-1) (UniProt Q969V6); experiment: co-IP; lysates of CD3+ T cells transfected with Flag-tagged STAT5b and Myc-tagged MKL-1 constructs, with or without IL-2; antibody overnight at 4 °C, Protein A/G Plus-agarose beads, Western blot
T1 sequence: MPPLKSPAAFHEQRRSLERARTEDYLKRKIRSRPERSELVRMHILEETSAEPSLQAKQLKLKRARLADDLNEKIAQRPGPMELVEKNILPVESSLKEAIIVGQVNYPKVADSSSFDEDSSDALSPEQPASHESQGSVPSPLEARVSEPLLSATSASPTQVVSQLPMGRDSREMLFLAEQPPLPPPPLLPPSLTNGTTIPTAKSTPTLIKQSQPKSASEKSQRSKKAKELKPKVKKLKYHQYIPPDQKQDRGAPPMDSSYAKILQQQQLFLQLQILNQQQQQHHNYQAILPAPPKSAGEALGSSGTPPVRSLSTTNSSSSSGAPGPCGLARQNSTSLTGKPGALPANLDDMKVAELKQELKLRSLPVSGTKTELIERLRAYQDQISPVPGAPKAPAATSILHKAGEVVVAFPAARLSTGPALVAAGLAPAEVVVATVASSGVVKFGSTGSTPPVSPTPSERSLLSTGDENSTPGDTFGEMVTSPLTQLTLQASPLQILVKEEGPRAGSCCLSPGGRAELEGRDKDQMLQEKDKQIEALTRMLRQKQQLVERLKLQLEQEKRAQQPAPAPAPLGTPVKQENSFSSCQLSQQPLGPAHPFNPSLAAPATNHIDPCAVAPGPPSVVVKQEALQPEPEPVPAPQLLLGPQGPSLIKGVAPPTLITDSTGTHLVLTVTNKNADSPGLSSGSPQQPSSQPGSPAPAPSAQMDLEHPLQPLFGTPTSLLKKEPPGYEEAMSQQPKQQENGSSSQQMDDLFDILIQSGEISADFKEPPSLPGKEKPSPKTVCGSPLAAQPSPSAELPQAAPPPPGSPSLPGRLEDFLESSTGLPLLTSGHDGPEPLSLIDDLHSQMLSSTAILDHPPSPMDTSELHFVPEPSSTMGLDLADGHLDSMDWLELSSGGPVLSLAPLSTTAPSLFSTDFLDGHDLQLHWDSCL

[2] = molecular target: T1, Myc-tagged MKL-1 (WT-MKL-1); experiment: co-IP; cells transfected with Myc-MKL-1 and HA-SRF along with NR or STAT5b siRNA, or with empty vector or STAT5b and treated with IL-2 or DMSO; controls without antibody or without Myc transfection
[3] = molecular target: T2, MKL-1 in CD3+ T cells and Treg cells (human (in human CD3+ T cells and Treg cells)) (UniProt Q969V6); experiment: co-IP; lysates of CD3+ T cells and of Treg cells; specific antibody overnight at 4 °C, Protein A/G Plus-agarose beads, Western blot
T2 sequence: T1 sequence

[4] = molecular target: T1, Myc-tagged MKL-1 (WT-MKL-1); experiment: co-IP; cells transfected with Myc-MKL-1 and HA-SRF along with NR or STAT5b siRNA, or with empty vector or STAT5b and treated with IL-2 or DMSO; controls without antibody or without Myc transfection; remark: listed apart in the source

Flag-tagged STAT5b (WT-STAT5b) (from UniProt P51692 1-787)
binding [1]: binds
binding [2]: binds

STAT5b in CD3+ T cells and Treg cells (from UniProt P51692 1-787)
binding [3]: binds

B1: HA-SRF (protein, UniProt P11831 1-508)
chain: MLPTQAGAAAALGRGSALGGSLNRTPTGRPGGGGGTRGANGGRVPGNGAGLGPGRLEREAAAAAATTPAPTAGALYSGSEGDSESGEEEELGAERRGLKRSLSEMEIGMVVGGPEASAAATGGYGPVSGAVSGAKPGKKTRGRVKIKMEFIDNKLRRYTTFSKRKTGIMKKAYELSTLTGTQVLLLVASETGHVYTFATRKLQPMITSETGKALIQTCLNSPDSPPRSDPTTDQRMSATGFEETDLTYQVSESDSSGETKDTLKPAFTVTNLPGTTSTIQTAPSTSTTMQVSSGPSFPITNYLAPVSASVSPSAVSSANGTVLKSTGSGPVSSGGLMQLPTSFTLMPGGAVAQQVPVQAIQVHQAPQQASPSRDSSTDLTQTSSSGTVTLPATIMTSSVPTTVGGHMMYPSPHAVMYAPTSGLGDGSLTVLNAFSQAPSTMQVSHSQVQEPGGVPQVFLTASSGTVQIPVSAVQLHQMAVIGQQAGSSSNLTELQVVNLDTAHSTKSE
binding [4]: binds
